Laboratory results from paper PMC11758215.
Results are given in words; binding and its absence hold for the method and conditions named. Binding seen in cells or lysates may run through a third protein. Some entries that bind do so weakly or less than the wild type.

Sequences of proteins named here, by UniProt entry; tags and fusion partners are left off.
UniProt Q9CQW9: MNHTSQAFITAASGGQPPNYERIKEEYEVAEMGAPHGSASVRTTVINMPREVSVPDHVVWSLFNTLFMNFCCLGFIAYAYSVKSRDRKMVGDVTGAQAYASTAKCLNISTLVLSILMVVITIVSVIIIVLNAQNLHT

Target: T1, S100 calcium-binding protein A11 (mouse (endogenous in 4T1)) (UniProt P50543)
T1 sequence: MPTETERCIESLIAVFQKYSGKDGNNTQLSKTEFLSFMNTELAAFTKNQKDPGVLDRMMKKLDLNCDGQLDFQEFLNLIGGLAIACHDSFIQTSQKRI
Assay: co-IP; co-immunoprecipitation from 4T1 cells, detected by immunoblot; which antibody precipitated is not told

binding: binds
Substance: IFITM3 (from UniProt Q9CQW9 1-137)
